The whole screen tested about 390,000 compounds, of which about 910 (0.23%) were called active. The shares of active, inactive and inconclusive entries below differ from those in the screen. Calls come from the whole dose curve; as a rule, active = well fitted inhibition curve with a large enough effect; inconclusive = small, poorly fitted or top-dose-only effect; inactive = no such curve, though single readings can be large or run the other way. Potencies of inconclusive entries are doubtful fits and often do not repeat.
What follows are molecules tested against Ubiquitin carboxyl-terminal hydrolase 1 (Homo sapiens) (UniProt O94782) (assay: Inhibitors of USP1/UAF1: Primary Screen). Details: recombinant USP1/UAF1, Ub-Rhodamine cleavage fluorescence; series mostly up to 57.1 µM.
Summary of the method: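 Step one: compound is pinned into 1nM USP1/UAF1 in HEPES pH 7.8 buffer with TCEP. Step two: 15 min room-temperature incubation. Step three: Ub-Rho (150nM final) starts cleavage, tracked by fluorescence over six one-minute reads.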
Note: nearly all actives have a fitted effect of over 60% in size.
Potency is the fitted concentration of half-maximal effect.

Chains of the proteins cited; added tags and fusions are not shown. Lines headed by an entry give the natural chain unless they say otherwise; changes in a name come on top.
UniProt O94782: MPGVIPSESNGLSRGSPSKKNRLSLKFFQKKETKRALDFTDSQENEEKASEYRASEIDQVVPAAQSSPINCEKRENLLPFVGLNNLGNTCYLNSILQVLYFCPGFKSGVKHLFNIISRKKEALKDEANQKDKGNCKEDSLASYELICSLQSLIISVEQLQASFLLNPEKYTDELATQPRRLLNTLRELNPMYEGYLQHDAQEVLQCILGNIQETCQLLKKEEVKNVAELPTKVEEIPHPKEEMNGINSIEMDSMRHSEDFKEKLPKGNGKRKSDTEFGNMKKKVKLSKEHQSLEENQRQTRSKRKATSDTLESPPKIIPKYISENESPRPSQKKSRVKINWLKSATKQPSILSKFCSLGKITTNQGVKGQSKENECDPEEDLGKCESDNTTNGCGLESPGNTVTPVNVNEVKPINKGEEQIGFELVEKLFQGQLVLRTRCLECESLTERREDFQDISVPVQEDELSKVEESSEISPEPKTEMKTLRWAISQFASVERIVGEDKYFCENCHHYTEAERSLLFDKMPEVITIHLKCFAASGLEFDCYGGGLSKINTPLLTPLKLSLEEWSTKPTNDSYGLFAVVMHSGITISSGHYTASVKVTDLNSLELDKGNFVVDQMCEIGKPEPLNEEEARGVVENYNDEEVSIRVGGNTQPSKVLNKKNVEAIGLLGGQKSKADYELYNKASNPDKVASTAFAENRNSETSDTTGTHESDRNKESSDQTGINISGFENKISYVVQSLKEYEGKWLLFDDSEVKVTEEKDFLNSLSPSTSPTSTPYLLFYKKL

Potency, inconclusive:
CCOc1ccc(NC(=O)c2nc(SCC)ncc2Cl)cc1 39.8 µM [inhibitor, partial curve, poor fit]
NC1=NC[C@H](Cc2ccc(O)cc2)N1CCC12CC3CC(CC(C3)C1)C2 44.7 µM [inhibitor, single point]
O=C1NNC(c2ccccc2)=N/C1=C\c1ccccc1 35.5 µM [inhibitor, partial curve]
Clc1cccc(-c2sc(Nc3ccccc3)n[n+]2-c2ccccc2)c1Cl 12.6 µM [inhibitor, partial curve]
COc1ccccc1CCNC(=O)C(=O)NCC(c1cccnc1)N1CCN(c2ccccc2)CC1 (stereo unspecified) 1.12 µM [inhibitor, partial curve]
Cc1ccc(OCC(=O)NNC(=S)NCc2ccccc2)cc1 7.94 µM [inhibitor, partial curve, poor fit]
Cc1c(NS(=O)(=O)c2ccc(Cl)cc2)c(=O)n(-c2ccccc2)n1C 0.355 µM [inhibitor, full curve, poor fit]
N#Cc1ccccc1OCC(=O)N1CCN(c2ccccc2)CC1 7.08 µM [inhibitor, full curve, poor fit]
CC(C)(C)NC(=O)c1cccc(NC(=O)c2cccc(O)c2)c1 0.794 µM [inhibitor, full curve, poor fit]
CCC(C)Sc1ccc([C@@H]2[C@H]3C(=O)N(CC)C(=O)[C@H]3[C@]3(C(=O)OC)CCCCN23)cc1 (stereo partly specified) 28.2 µM [inhibitor, single point]
CCNc1nc(SCC(N)=O)nc2sc3c(c12)CCN(C)C3 31.6 µM [inhibitor, single point]
COC(=O)C1=C(CCc2ccccc2)NC(=O)NC1c1ccc(Br)cc1 (stereo unspecified) 0.251 µM [inhibitor, full curve, poor fit]
CC(C)[C@H]1COCCS(=O)(=O)N1Cc1ccccc1-c1cccc2c1oc1ccccc12 79.4 µM [inhibitor, partial curve, poor fit]
COc1ccc(CCN2C(=O)N(c3ccc(OC)cc3)C(=O)C2CC(=O)Nc2ccccc2)cc1 (stereo unspecified) 44.7 µM [inhibitor, partial curve, poor fit]
CCN(CC)CCCNC(=O)CCc1c(C)nc2c(c1C)c(=O)n(C)c(=O)n2C 3.98 µM [inhibitor, full curve]
O=C1CN(S(=O)(=O)c2cccc(Br)c2)CCN1 50.1 µM [inhibitor, single point]
CC1CCC(NC(=O)c2ccc(CNc3c(NC4CCCCC4)c(=O)c3=O)cc2)CC1 (stereo unspecified) 39.8 µM [inhibitor, single point]
CC(=O)N1CCc2c(sc3c2c(=O)n(CCc2ccccc2)c(=O)n3CC(=O)Nc2ccccc2F)C1 15.8 µM [inhibitor, partial curve, poor fit]
O=C(NCCN1CCCCCC1)C1CCC(CNS(=O)(=O)c2cccc3cccnc23)CC1 (stereo unspecified) 0.794 µM [inhibitor, full curve]
N=C(N)c1ccc(O)cc1 79.4 µM [inhibitor, partial curve, poor fit]
COc1ccccc1-c1nnc(C2CCN(S(=O)(=O)c3ccc(CC(C)C)cc3)CC2)o1 10 µM [inhibitor, partial curve]
Nc1c(C(=O)Nc2ccc(C(F)(F)F)cc2)sc2nc(-c3cccs3)ccc12 56.2 µM [inhibitor, partial curve, poor fit]
CCC1=NN2C(=N)/C(=C\c3ccc(OCCOc4ccc(NC(C)=O)cc4)cc3)C(=O)N=C2S1 79.4 µM [inhibitor, partial curve, poor fit]
O=C1CN(C(=O)COC(=O)c2ccc([N+](=O)[O-])o2)c2ccccc2N1 35.5 µM [inhibitor, single point]
COc1ccc(Sc2ccc(/C=C3\C(=O)NN(c4ccccc4)C3=O)o2)cc1 35.5 µM [inhibitor, partial curve]
Cn1c(N)c(NC(=S)NC2CCCCC2)c(=O)n(C)c1=O 0.355 µM [inhibitor, full curve, poor fit]
COc1cc(/C=N/NC(=Nc2ccc(C)cc2)c2nc3ccccc3s2)ccc1O 39.8 µM [inhibitor, single point]
Cc1cccc(C)c1OCC(=O)N/N=C/c1cccn1C 0.794 µM [inhibitor, full curve, poor fit]
CC(C)C[C@H](NC(=O)c1nc[nH]c1C(=O)N1CCN(c2ccccc2)CC1)C(=O)OC(C)(C)C 0.708 µM [inhibitor, full curve, poor fit]
CCC(NC(C)C)C(O)c1ccc(O)c(O)c1 (stereo unspecified) 56.2 µM [inhibitor, single point]
O=C(NC1CCCCC1)c1ccc(-c2ccccc2[N+](=O)[O-])o1 12.6 µM [inhibitor, partial curve]
COC/C=C/C1=CC2=CC(=O)C(C)(OC(=O)c3cnc4ccccc4n3)C(=O)C2=CN1C1CC1 (stereo unspecified) 10 µM [inhibitor, partial curve]
Cc1ccc(NC(=O)N2CCOCC2)cc1NC(=O)N1CCOCC1 5.01 µM [inhibitor, partial curve]
Cc1ccc(CNC(=O)c2cc3c(=O)oc4ccc(C)cc4c3s2)cc1 7.94 µM [inhibitor, full curve, poor fit]
Cc1cccn2c(=O)cc(COc3ccc(NC(=O)C(C)C)cc3)nc12 112 µM [inhibitor, partial curve]
C[n+]1cc(C(=O)N2CCCCC2)ccc1/C=C/c1c[nH]c2ccccc12 39.8 µM [inhibitor, partial curve, poor fit]
COc1cccc(NC(=O)CSc2nccn2C2CCCC2)c1 0.562 µM [inhibitor, full curve, poor fit]
C#CCNC(=O)C1=C[C@@H](c2coc3ccccc3c2=O)[C@H](CCCO)[C@@H](OCC)O1 14.1 µM [inhibitor, partial curve]
CCCCC12CN3CC(C)(CN(C1)C3c1ccc(O)c(OC)c1)C2=O (stereo unspecified) 7.94 µM [inhibitor, partial curve]
COc1ccc(C2=C(N3CCN(c4cccc(C)c4)C(C)C3)c3ccccc3C2=O)cc1 (stereo unspecified) 6.31 µM [inhibitor, full curve]
Cc1ccc(S(=O)(=O)Oc2ccccc2/C=N/NC(N)=S)cc1 25.1 µM [inhibitor, single point]
O=C(c1ccc(Br)cc1)C(CN1CCOCC1)c1ccccc1 (stereo unspecified) 1.41 µM [inhibitor, full curve, poor fit]
COc1ccc(C(C)=O)cc1CON=C1CSCc2ccccc21 1.12 µM [inhibitor, full curve, poor fit]
CC(C)n1cnc2c(Nc3ccc(C(=O)O)cc3)nc(Cl)nc21 8.91 µM [inhibitor, partial curve, poor fit]
CC12CCC(C(=O)Nc3ccc(SC(F)F)cc3)(CC1=O)C2(C)C (stereo unspecified) 39.8 µM [inhibitor, partial curve, poor fit]
CCOc1ccc(C2c3[nH]c4ccccc4c3CCN2C(=O)CSCc2ccc(F)cc2)cc1 (stereo unspecified) 0.112 µM [inhibitor, full curve]

Potency, inactive:
C=CCNc1sc(C(=O)c2ccccc2)c(N)c1-c1nc2ccccc2s1
CCn1c(N)c(C(=O)NCC2CCCO2)sc1=S (stereo unspecified)
c1ccc(Nc2cccc(Nc3ccccc3)c2)cc1
CCCCCCN1CC(O)=C(c2ccccc2)C1=N
COc1cccc(N=Cc2c(O)n(-c3cccc(C)n3)c(=O)c3ccccc23)c1
Cc1cc(C)c(NC(=O)CCCOC(=O)C2=COCCO2)c(C)c1
CCc1ccc(/C=N/NC(=S)NCCc2ccccc2)cc1
CSc1ccccc1NC(=O)CN(Cc1ccc(Cl)cc1)S(C)(=O)=O
COc1ccc(CNCCC(c2ccc(C)cc2)c2ccco2)cc1 (stereo unspecified)
Cc1nn(-c2ccccc2)c(-n2cccc2)c1C(=O)N1CCN(c2ccccc2)CC1
Cc1ccc(C(=O)Nc2cccc([N+](=O)[O-])c2)cc1S(=O)(=O)Nc1ccc(NC(=O)c2ccccc2)cc1
Cc1ccc(NC(=O)c2cc(N3C(=O)C=CC3=O)ccc2N2CCOCC2)cc1Cl
N#CC1=C(N)N(c2ccc(Br)cc2)C2=C(C(=O)CCC2)C1c1cccnc1 (stereo unspecified)
O=C(Cn1cnc2ccccc2c1=O)NCCC(=O)Nc1ccccc1C(F)(F)F
CCCCN(C(=O)c1cccc(S(=O)(=O)N(CC)c2ccccc2)c1)c1c(N)n(CCCC)c(=O)[nH]c1=O
COc1cc2ncc(C(=O)c3ccc(C)cc3)c(N3CCCCC3)c2cc1OC
COc1ccc(S(=O)(=O)Nc2ccc3c(c2)OCO3)cc1
CCCCc1c(C)nc(N2CCCC2)[nH]c1=O
Cc1ccccc1/C(N)=N/OC(=O)N1c2ccccc2Sc2ccccc21
Cc1oc2ccc(O)c(CN3CCOCC3)c2c1C(=O)c1ccc(Cl)cc1

Three neighbouring compounds out of the list so far, quoted:
Potency, inactive:
c1ccc(Nc2cccc(Nc3ccccc3)c2)cc1
CCCCCCN1CC(O)=C(c2ccccc2)C1=N
COc1cccc(N=Cc2c(O)n(-c3cccc(C)n3)c(=O)c3ccccc23)c1

Ordered by heavy-atom count (descending): 3 of the compounds above
Potency, inactive:
Cc1ccccc1/C(N)=N/OC(=O)N1c2ccccc2Sc2ccccc21
Cc1cc(C)c(NC(=O)CCCOC(=O)C2=COCCO2)c(C)c1
CCc1ccc(/C=N/NC(=S)NCCc2ccccc2)cc1

Fetched by compound from above:
Potency, inactive:
Cc1ccccc1/C(N)=N/OC(=O)N1c2ccccc2Sc2ccccc21
Cc1ccc(C(=O)Nc2cccc([N+](=O)[O-])c2)cc1S(=O)(=O)Nc1ccc(NC(=O)c2ccccc2)cc1

— PubChem BioAssay AID743255 (National Center for Advancing Translational Sciences (NCATS), 2014)
